Measured data: PubChem BioAssay AID504793 (Drosophila RNAi Screening Center, 2011)

Aim: 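Knock-downs allowing continued mitosis even though DNA is damaged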 (primary screen)
Cell system: Drosophila S2R+ cells
Reagents: long dsRNA against Drosophila genes, about 0.25 µg dsRNA per well
Time to read-out: 4 days of dsRNA, then 4 hours of drug before read-out
Challenge: doxorubicin 0.5 µM for 4 hours to cause double-strand breaks, in cells also given a low, harmless dose of dsRNA against nbs to sensitise the assay
Measured: 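Mitotic index as the number of phospho-histone H3-positive cells in each well following doxorubicin, given as raw counts without normalisation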
Direction: mitotic cells: higher = more cells in mitosis, weaker G2 arrest
Hit rule: 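Genes are called active only when high mitotic counts were reproduced with independent dsRNAs and mitosis was checked for delay without damage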
Meaning of the calls: active = confirmed in follow-up tests; inactive = not confirmed
In all, the deposit lists about 23,000 reagents; below is an unselected part of those with a known target gene and a result. In the full data, 62 (0.27%) got an active call. 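Calls come from follow-up tests whose scores are not deposited, so confirmed genes may have low counts here; counts are not normalised per plate.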 The raw values are shown without normalisation. Reagents against one gene are numbered here. Reagent sequences are not shown.

For LBR (GeneID 37482) #1 the deposit lists mitotic cells, replicate 1 = 10; inactive.
After knock-down of LBR (GeneID 37482) #2 the results were mitotic cells, replicate 1 = 5; inactive.
DCTN6-p27 (GeneID 35195) #1 showed mitotic cells, replicate 1 = 45; inactive.
With knock-down of DCTN6-p27 (GeneID 35195) #2 the results were mitotic cells, replicate 1 = 34; inactive.
Against DCTN6-p27 (GeneID 35195) #3, the values are mitotic cells, replicate 1 = 11; inactive.
For Tg (GeneID 34093) #1, the values are mitotic cells, replicate 1 = 6; inactive.
Silencing of Tg (GeneID 34093) #2 came out at: mitotic cells, replicate 1 = 1; inactive.

2 entries already listed, sorted by “mitotic cells, replicate 1”, lowest first.
DCTN6-p27 (GeneID 35195) #3 → mitotic cells, replicate 1 = 11; outcome = inactive
DCTN6-p27 (GeneID 35195) #2 → mitotic cells, replicate 1 = 34; outcome = inactive

Further entries:
bumpel (GeneID 41368) gave mitotic cells, replicate 1 = 3; inactive.
Depletion of CG7506 (GeneID 38857) came out at: mitotic cells, replicate 1 = 4; inactive.
dati (GeneID 43789) #1 showed mitotic cells, replicate 1 = 12; inactive.
Silencing of dati (GeneID 43789) #2 resulted in: mitotic cells, replicate 1 = 14; inactive.
With knock-down of dati (GeneID 43789) #3, the record shows mitotic cells, replicate 1 = 2; inactive.
Silencing of mthl10 (GeneID 38057) #1 came out at: mitotic cells, replicate 1 = 7; inactive.
mthl10 (GeneID 38057) #2 gave mitotic cells, replicate 1 = 3; inactive.
For mthl10 (GeneID 38057) #3 the deposit lists mitotic cells, replicate 1 = 14; inactive.
